At least one structure is not confirmed: it was looked up by name or label, or the drawing left a doubt.
Assays:
4-HPA hidroxylase = experiment: 4-HPA hydroxylase activity of strains, spectrophotometric test in standard conditions; type: biochemical, K. pneumoniae
Excerpt: By means of hydroxylation, this enzyme transforms 3-HPA and 4-HPA into 3,4-DHPA which, after the subdequent action of a dioxygenase, loses its aromaticity. For the isolation of these genes, the chromosomic DNA of K. pneumoniae was isolated and digested with the restriction enzyme Bam Hl. As a cloning vector the plasmid pUC18Not was chosen (Herrero et al., 1990; J. Bacteriol. 72:6557-67), digested with BamHl and dephosphorilated. Bonding mixtures were used in the transformation of the mutant strain W-21 of E. coli (Lacrec A), a mutant deficient in the 4-HPA hydroxylase enzyme. The transformants were select on plates that contained ampicillin (100 µg/ml), IPTG and X-Gal and subsequently on selected media with Ampicillin and 4-HPA as the sole source of carbon and energy. A recombinant plasmid complemented the 4-HPA mutation of E. coli W-21 and treating this transformant with acridin orange caused reversion to the mutant phenotype (due to loss of plasmids). […] Synthesis of the enzyme was checked by determining enzymatic activity in "standard" conditions, by means of a spectrophotometric test (Martin et al., 1991; J. Gen. Microbiol. 132: 621-628). In this way it was established that the enzyme synthesized constitutively in the strains of E. coli derived from K-12 (strains incapable of metabolizing 4-HPA because they lack all the genes of the degradative route), unlike what occurs in K. pneumoniae M5a1 or E. coli W, where synthesis of the enzyme is inducible by 3-HPA and/or 4-HPA. The E. coli K-12 (E. coli CC118) strains, transformed by the recombinant plasmid, were called E. coli P260. […]

By UniProt entry, the sequences of proteins in these tests, tags left out. Where a name states a change or a piece, a line headed by the entry shows the natural chain unless it says otherwise.
UniProt Q48440: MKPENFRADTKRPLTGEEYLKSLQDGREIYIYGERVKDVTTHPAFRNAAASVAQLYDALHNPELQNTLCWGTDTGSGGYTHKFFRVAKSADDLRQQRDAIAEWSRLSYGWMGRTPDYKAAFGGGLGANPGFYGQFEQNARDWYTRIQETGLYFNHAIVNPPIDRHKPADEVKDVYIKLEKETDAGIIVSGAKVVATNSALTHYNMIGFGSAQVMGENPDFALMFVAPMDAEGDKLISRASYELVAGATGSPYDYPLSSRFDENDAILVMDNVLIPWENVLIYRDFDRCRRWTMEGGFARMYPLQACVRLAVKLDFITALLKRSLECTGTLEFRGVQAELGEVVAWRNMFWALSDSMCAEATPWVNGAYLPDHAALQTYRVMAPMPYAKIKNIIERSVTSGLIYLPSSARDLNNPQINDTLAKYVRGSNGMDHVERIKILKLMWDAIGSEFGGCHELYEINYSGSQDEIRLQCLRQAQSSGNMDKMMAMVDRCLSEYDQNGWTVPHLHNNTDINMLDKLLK

[1] = biological target: T1, 4-HPA hydroxylase of K. pneumoniae (Klebsiella oxytoca, UniProt Q48440); experiment: Hidroxylase activity expressed by E. coli P260 on different aromatic compounds; type: biochemical; details: result in words
T1 construct: expressed in transfected cells; host or cells: E. coli CC118 (K-12) transformed with pG260 = E. coli P260 (CECT 4627)
Excerpt: By means of hydroxylation, this enzyme transforms 3-HPA and 4-HPA into 3,4-DHPA which, after the subdequent action of a dioxygenase, loses its aromaticity. For the isolation of these genes, the chromosomic DNA of K. pneumoniae was isolated and digested with the restriction enzyme Bam Hl. As a cloning vector the plasmid pUC18Not was chosen (Herrero et al., 1990; J. Bacteriol. 72:6557-67), digested with BamHl and dephosphorilated. Bonding mixtures were used in the transformation of the mutant strain W-21 of E. coli (Lacrec A), a mutant deficient in the 4-HPA hydroxylase enzyme. The transformants were select on plates that contained ampicillin (100 µg/ml), IPTG and X-Gal and subsequently on selected media with Ampicillin and 4-HPA as the sole source of carbon and energy. A recombinant plasmid complemented the 4-HPA mutation of E. coli W-21 and treating this transformant with acridin orange caused reversion to the mutant phenotype (due to loss of plasmids). […]
The E. coli P260 cultures produced a blackish brown pigmentation in LB or BHI as a consequence of the expression of the cloned genes. […] To investigate this hypothesis, several aromatic compounds were analyzed, different from 3-HPA and 4-HPA, as possible substrates of the enzyme (Table 2).

Structure (SMILES)	4-HPA hidroxylase (4-HPA hidroxylase; strain E. coli CC118, substrate growth Gly/4-HPA)	4-HPA hidroxylase (4-HPA hidroxylase; strain E. coli P260, substrate growth Gly/4-HPA/Ap)	4-HPA hidroxylase (4-HPA hidroxylase; strain E. coli P260, substrate growth LB/Ap)	4-HPA hidroxylase (4-HPA hidroxylase; strain E. coli W-21 (plasmid), substrate growth Gly/4-HPA/Ap)	4-HPA hidroxylase (4-HPA hidroxylase; strain E. coli W-21 (plasmid), substrate growth LB/Ap)	4-HPA hidroxylase (4-HPA hidroxylase; strain E. coli W-21, substrate growth Gly/4-HPA)	4-HPA hidroxylase (4-HPA hidroxylase; strain K. pneumoniae M5a1, substrate growth 4-HPA)	4-HPA hidroxylase (4-HPA hidroxylase; strain K. pneumoniae M5a1, substrate growth LB)	transformation by the enzyme [1]
O=C(O)Cc1ccc(O)cc1 [4-HPA, 4-hydroxyphenylacetate]	<1	52±5	55±4	23±6	<5	<1	30±5	<1	
O=C(O)Cc1ccccc1O [2-HPA, 2-Hydroxyphenylacetate]									not transformed

From EP0857779A1, “PROCESS FOR THE BIODEGRADATION OF AROMATIC COMPOUNDS AND SYNTHESIS OF PIGMENTS AND COLORANTS, ALCALOIDS AND POLYMERS, WITH THE USE OF THE R[…] ESCHERICHIA COLI P260” (priority 1996, dated 1998)
